# According to PubChem BioAssay AID1117319 (Southern Research Institute, 2015):
# By UniProt entry, the sequences of proteins in these tests, tags left out. Where a name states a change or a piece, a line headed by the entry shows the natural chain unless it says otherwise.
# UniProt P69720: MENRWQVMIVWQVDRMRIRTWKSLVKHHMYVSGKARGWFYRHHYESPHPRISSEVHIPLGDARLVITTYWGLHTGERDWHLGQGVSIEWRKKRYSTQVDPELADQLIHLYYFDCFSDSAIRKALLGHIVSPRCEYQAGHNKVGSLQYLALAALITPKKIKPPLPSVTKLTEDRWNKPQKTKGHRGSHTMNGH
# UniProt P69721: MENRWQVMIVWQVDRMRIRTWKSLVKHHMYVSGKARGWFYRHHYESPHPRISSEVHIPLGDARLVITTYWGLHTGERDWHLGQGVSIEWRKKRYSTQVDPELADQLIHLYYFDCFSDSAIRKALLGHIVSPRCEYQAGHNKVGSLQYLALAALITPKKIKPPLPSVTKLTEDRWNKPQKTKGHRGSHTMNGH
# UniProt P69722: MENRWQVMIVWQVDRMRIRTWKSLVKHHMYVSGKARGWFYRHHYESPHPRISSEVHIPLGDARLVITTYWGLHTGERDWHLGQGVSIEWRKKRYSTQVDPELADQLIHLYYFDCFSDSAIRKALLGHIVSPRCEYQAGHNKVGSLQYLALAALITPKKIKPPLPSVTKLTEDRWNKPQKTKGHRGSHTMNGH
# UniProt P69723: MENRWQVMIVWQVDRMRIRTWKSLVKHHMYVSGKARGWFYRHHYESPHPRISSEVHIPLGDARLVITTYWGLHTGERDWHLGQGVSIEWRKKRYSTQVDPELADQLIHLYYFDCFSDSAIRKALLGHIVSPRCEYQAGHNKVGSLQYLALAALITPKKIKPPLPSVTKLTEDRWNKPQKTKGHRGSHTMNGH
# UniProt Q9HC16: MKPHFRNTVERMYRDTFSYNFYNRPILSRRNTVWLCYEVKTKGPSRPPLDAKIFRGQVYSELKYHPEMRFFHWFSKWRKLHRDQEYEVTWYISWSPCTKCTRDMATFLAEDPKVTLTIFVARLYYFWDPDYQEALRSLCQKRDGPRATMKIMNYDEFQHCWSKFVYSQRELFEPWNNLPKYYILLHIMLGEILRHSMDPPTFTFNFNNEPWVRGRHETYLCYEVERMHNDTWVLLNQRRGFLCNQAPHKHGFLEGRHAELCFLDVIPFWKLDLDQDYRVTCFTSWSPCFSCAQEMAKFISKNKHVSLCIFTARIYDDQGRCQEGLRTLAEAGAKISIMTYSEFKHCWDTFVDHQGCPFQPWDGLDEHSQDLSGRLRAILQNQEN
# Several values for one entry are separate records, joined by “and”; a condition that tells them apart may be missing. Equal values may be shown once. In all, about 260,000 compounds went through this assay and about 1,500 (0.58%) were called active. Inconclusive results, whose numbers are uncertain, are shown with a selection of clear calls.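 How the source made its calls: active means inhibition above a set limit at one or more doses, reproduced on every date tested; inconclusive means results disagree between test dates, or hit never tested in dose response; inactive means the rest.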
# Target: Virion infectivity factor (Human immunodeficiency virus type 1 group M subtype B (isolate BH10)) + Virion infectivity factor (Human immunodeficiency virus type 1 group M subtype B (isolate BRU/LAI)) + Virion infectivity factor (Human immunodeficiency virus type 1 group M subtype B (isolate PCV12)) + Virion infectivity factor (Human immunodeficiency virus type 1 group M subtype B (isolate HXB2)) + DNA dC->dU-editing enzyme APOBEC-3G (Homo sapiens) (UniProt P69720+P69721+P69722+P69723+Q9HC16)
# Test: inhibitors of Vif binding to APOBEC3G peptide, primary screen, biochemical, TR-FRET, GST-Vif 1-94, biotin-A3G peptide, dose response retest (AID 1117319);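 further: Vif residues 1-94 fused to GST binding biotinylated APOBEC3G peptide 110-148; 0% = full assay without inhibitor and 100% = GST in place of GST-Vif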
# Settings: stronger effect = higher value
row,Compound,inhibition
1,CC(=O)c1sc2nc(CSc3nnnn3-c3ccccc3)[nH]c(=O)c2c1C,inconclusive: 44.6%
2,CCN1CCN(C(=O)/C=C/c2ccc(C)o2)CC1,inconclusive: 45.6%
3,CCc1ccc(N2C(=O)c3sc4nnc(-c5ccccc5)c(=O)n4c3C2=O)cc1,inconclusive: 34%
4,CCN1C(=O)/C(=C/c2nc3ccccc3c(=O)n2-c2ccc(C)cc2)c2ccccc21,inconclusive: 43.9%
5,O=C(CN1CCN(c2ccccc2O)CC1)NC(c1ccccc1)c1ccccc1,inconclusive: 37.8%
6,Cn1c(N)c(C(=O)COC(=O)c2ccccc2C(=O)c2ccccc2)c(=O)n(C)c1=O,inconclusive: 40.9%
7,CCOC(=O)c1nn(-c2ccc(C)c(C)c2)cc1O,inconclusive: 36.4%
8,COc1ccc(CNC(=O)C2CCN(S(=O)(=O)N3CCC4(CC3)OCCO4)CC2)c(OC)c1,inconclusive: 45.5%
9,COc1ccc2nc3cccc(OC)c3nc2c1,inactive: 15.1%
10,COc1ccc(OCc2nnc3n2N=C(c2ccc(C)cc2)CS3)cc1,inconclusive: 49.2%
11,COC(=O)c1c(NC(=O)Cn2cc([N+](=O)[O-])cn2)sc2c1CCC2,inconclusive: 34.2%
12,COc1ccc(CC(=O)N2CCN(c3ccccn3)CC2)cc1OC,inconclusive: 48.8%
13,COc1cc(Cl)ccc1NC(=O)COc1ccccc1C(=O)N1CCN(c2ccc(O)cc2)CC1,inconclusive: 38.6%
14,O=C(NCCN1CCCCC1)c1cc2ccccc2[nH]1,inconclusive: 37.2%
15,CCCCCOc1ccc(C(=O)NC(C(=O)O)C(C)C)cc1 (stereo not given),inconclusive: 43.2%
16,CCN1C(=O)N[C@@H](c2cccs2)C(C(C)=O)=C1C,inconclusive: 46.7%
17,O=C(c1ccco1)n1nc(-c2ccccc2)nc1SCc1ccccc1,inconclusive: 40.1%
18,O=C(O)CC1=C(O)C(=O)N(c2ccccc2)C1c1ccccc1 (stereo not given),inconclusive: 50.8%
19,CCc1nnc(NC(=O)c2ccc(NS(=O)(=O)c3ccccc3)cc2)s1,inconclusive: 33.3%
20,COC(=O)c1ccc(Oc2ccc(C(C)(C)C)cc2)c([N+](=O)[O-])c1,inconclusive: 61.2%
21,COc1cc2c(cc1OC)C1c3ccc(OC)c(OC)c3OCC1(O)C2 (stereo not given),inactive: -4.73%
22,Clc1ccc(NCn2cncn2)nc1,inactive: 10.8%
23,O=C(O)c1ccccc1C(=O)c1ccc(Oc2ccccc2)cc1,inconclusive: 37.3%

row,Compound,inhibition
1,COCCN(C(=O)COC(=O)CCn1c(C)csc1=O)c1c(N)n(Cc2ccccc2)c(=O)[nH]c1=O,inactive: 3.17%
2,COC(=O)c1sc2nc(SCc3cccc(F)c3)n(N)c(=O)c2c1C,inconclusive: 34.7%
3,N#CC1=C(N)OC2=C(C(=O)CC(c3ccco3)C2)C1c1ccc(OCc2c(F)cccc2Cl)cc1 (stereo not given),inactive: 13.6% and inactive: 14.7%
4,CCSc1n[nH]c2nc3c(c(=O)n12)C1(CCCCC1)Cc1ccccc1-3,inactive: -15.1%
5,COc1ccc(N2CCN(C(=O)c3ccccc3F)CC2)c([N+](=O)[O-])c1,inconclusive: 41%
6,CCN(Cc1ccccc1)C(c1ccccn1)c1nnnn1C1CCCCC1 (stereo not given),inconclusive: 36.5%
7,CCN(CC)CCCN1C=C2C(=O)C(C)(OC(=O)C3CCCC3)C(=O)C=C2C=C1c1ccsc1 (stereo not given),inconclusive: 43.3%
8,CCCCN1Cc2cc(C(=O)c3cc(F)ccc3O)cnc2NC1=O,inconclusive: 43.2%
9,O=C1C(Cl)=C(N2CCC(C(=O)O)CC2)C(=O)c2ccccc21,inconclusive: 50.3%
10,Oc1ccc(N2CCN(C(=S)NCCc3ccccc3)CC2)cc1,inconclusive: 41.7%
11,CCOc1ccc(CCNC(=O)COC(=O)Cc2c[nH]c3ccccc23)cc1OCC,inactive: 2.44%
12,CN(C)S(=O)(=O)c1ccc(S(=O)(=O)NCCN2CCOCC2)cc1,inconclusive: 47.2%
13,CC(C)(C)NC(=O)CN(Cc1cccs1)C(=O)CCC(=O)Nc1nccs1,inconclusive: 62.9%
14,O=C(CCl)Nc1ccc(N2CCCCCC2)cc1,inconclusive: 60.3%
15,CCN1CCCC1CNC(=O)C(=O)Nc1ccccc1 (stereo not given),inconclusive: 39.8%
16,Cc1ccc(CNC(=O)Cc2ccc(-c3ccccc3)cc2)cc1,inconclusive: 47.6%
17,CCOC(=O)Cc1csc(NC(=S)NC(=O)c2ccccc2Br)n1,inconclusive: 41.1%
18,CCOC(=O)c1cc(C#N)c(Nc2ccccc2OC)nc1C(F)(F)F,inconclusive: 47%
19,CCN1CCN(c2ccc(NC(=O)c3cnccn3)cc2)CC1,inconclusive: 46.2%
20,O=C(Nc1ncccn1)C1c2ccccc2Oc2ccccc21,inconclusive: 48.1%
21,Cc1sc(-c2ccccn2)nc1OC(=O)c1ccc(Cl)c(Cl)c1,inactive: -6.3%
22,Cc1cc(C)cc(OCC(=O)OCC(=O)Nc2ccc(Cl)cn2)c1,inconclusive: 37.2%
23,CCOC(=O)C1CCN(C(=O)Nc2ccc3nc(C)c(C)nc3c2)CC1,inactive: 8.59%

row,Compound,inhibition
1,O=C(CSC1=NC(=O)C(c2ccccc2)C(=O)N1)Nc1cccc(Cl)c1 (stereo not given),inconclusive: 35.7%
2,Cc1cc(S(=O)(=O)NCc2ccccc2)ccc1OCC(=O)N1CCOCC1,inconclusive: 56.3%
3,Cn1ncc(Br)c1NC(=O)CSc1ccc(Cl)cc1,inconclusive: 63.7%
4,CCCn1c(SC/C(O)=C(\C#N)c2nc3ccccc3[nH]2)n[nH]c1=O,inactive: 8.52%
5,COCCN(Cc1cc2cc(C)c(C)cc2nc1Cl)C(=O)N1CCOCC1,inconclusive: 34.3%
6,Cc1ccc(-c2nc(CCN3C(=O)c4ccccc4C3=O)cs2)cc1,inconclusive: 36.7%
7,CCCC(=O)Nc1nnc(Sc2ccc(N(C)C)cc2)s1,inactive: 2.88%
8,Cn1c(=O)c2c(nc(SCCCC#N)n2Cc2ccccc2F)n(C)c1=O,inactive: 5.84%
9,COc1cc2nc(C3CC3)n(NC(=O)c3ccc(F)cc3)c(=O)c2cc1OC,inconclusive: 33%
10,CC(C)CNS(=O)(=O)c1ccc(CCC(=O)NCc2ccncc2)cc1,inconclusive: 61.9%
11,C/C(=N\NC(=O)CNc1cccc(C(F)(F)F)c1)c1cccs1,inconclusive: 60.3%
12,COc1ccc(CN2CCN(CC=C(C)C)C(CCO)C2)cc1Cn1cccn1 (stereo not given),inconclusive: 39.8%
13,Cc1cc(=O)c(C(=O)O)nn1-c1ccccc1[N+](=O)[O-],inconclusive: 40.9%
14,Cc1ccc(NC(=O)CCC(=O)NNC(=O)/C=C/C(=O)O)c(C)c1,inconclusive: 50.4%
15,COc1ccc(O)c(/C=N/NC(=S)Nc2cccnc2)c1,inconclusive: 61%
16,O=C(NC(=O)c1cnccc1C(F)(F)F)Nc1ccccc1,inconclusive: 36.2%
17,Cc1cc(Nc2ccc(F)cc2F)n2nc(C)nc2n1,inconclusive: 49.8%
18,CC(C)c1ccccc1NC(=O)Cn1c(/C=C/c2ccccc2)nc2ccccc21,inactive: 2.28%
19,CCOC(=O)C(/C=C(\C#N)C(=O)OCC)=C(/N)N1CCN(c2ccc(Cl)cc2)CC1,inconclusive: 40%
20,CC(/C=C1\SC(=S)N(NC(=O)c2cccc(O)c2)C1=O)=C\c1ccccc1,inconclusive: 38.9%
21,CCOc1cc(N2CCOCC2)c(OCC)cc1NC(=O)Cc1cccc(OC)c1,inconclusive: 51.3%
22,O=C1CCC(C(=O)NCCCn2ccnc2)N1 (stereo not given),inconclusive: 47.1%
23,COc1ccc(CNC(=O)c2cccc(S(=O)(=O)N3CCN(C)CC3)c2)cc1,inconclusive: 33.9%

row,Compound,inhibition
1,O=C(CCS(=O)(=O)c1ccc(Br)cc1)NC1CCCCCC1,inconclusive: 35.8%
2,CCOC(=O)c1ccc(NC(=O)CSc2nnc(C3CC3)n2CC)cc1,inconclusive: 41.6%
3,COC(=O)CN(c1ccccc1)S(=O)(=O)c1cc(Br)ccc1OC,inconclusive: 41%
4,O=C(COc1ccc(Cl)cc1)NCc1nnc(SCC(=O)NCCc2ccccc2)o1,inconclusive: 19.7%
5,Cc1ccc(OCc2n[nH]c(=S)n2Cc2ccccc2)cc1,inactive: 24.6%
6,ClC(Cl)c1nnc(-c2ccccc2)c(-c2c[nH]c3ccccc23)n1,inconclusive: 49.1%
7,Cc1ccc(Cn2nnnc2CN2CCC(O)(c3ccccc3F)CC2)cc1,inactive: 20%
8,Cc1cc2c(cc(C(=O)O)n2C)s1,inconclusive: 62%
9,CCCC(=O)Nc1ccc2c(c1)nc(CCN1CCCCC1)n2C,inconclusive: 42.9%
10,N#C/C=C1\n2c(nc3ccccc32)OC12CCCCC2,inconclusive: 37.7%
11,COC(=O)Cc1c(C)nc2nc(Cc3ccccc3)[nH]n2c1=O,inconclusive: 43%
12,Cn1nnnc1SCC(=O)NC(C)(C)C,inconclusive: 40.6%
13,Cc1c2cnn(-c3ccccc3)c(=O)c2c(C)n1CCCC(=O)N1CCN(C)CC1,inconclusive: 47.7%
14,Cc1ccc(-n2nc(C)c(NC(=O)CCl)c2C)cc1C,inconclusive: 46.5%
15,C=CCNC(=S)NNC(=O)C(CCCC)CC(C)O (stereo not given),inconclusive: 52.8%
16,NS(=O)(=O)c1ccc(NC(=O)CSc2nc3c(c(=O)[nH]2)CCCC3)cc1,inconclusive: 42.3%
17,CCOC(=O)C1CCCN(c2c(N3CCN(c4cccc(Cl)c4)CC3)c(=O)c2=O)C1 (stereo not given),inconclusive: 34.1%
18,Cc1ccc(N=CC2=C(O)CC(c3ccco3)CC2=O)cc1 (stereo not given),inactive: 14.7%
19,C(C#CCN1CCOCC1)#CCN1CCOCC1,inactive: 5.57%
20,CN(C(=O)c1ccno1)c1nnc(-c2cnccn2)s1,inconclusive: 45.2%
21,CCN(CC)CCN1C(=O)C(=O)/C(=C(/O)c2ccc(C)cc2)C1c1cccnc1 (stereo not given),inconclusive: 51.5%

# A second format for some results above:
row	Compound	inhibition
14	Cc1ccc(-n2nc(C)c(NC(=O)CCl)c2C)cc1C	inconclusive: 46.5%
15	C=CCNC(=S)NNC(=O)C(CCCC)CC(C)O (stereo not given)	inconclusive: 52.8%
16	NS(=O)(=O)c1ccc(NC(=O)CSc2nc3c(c(=O)[nH]2)CCCC3)cc1	inconclusive: 42.3%
17	CCOC(=O)C1CCCN(c2c(N3CCN(c4cccc(Cl)c4)CC3)c(=O)c2=O)C1 (stereo not given)	inconclusive: 34.1%
